Taken from: PubChem BioAssay AID1259254 (NCATS, 2017)
Screen: 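Genome-wide screen for genes that prevent DNA re-replication in cancer cells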 (primary screen). Cells: human HCT116 colorectal cancer cells. Reagent: single siRNA against human genes. Time to read-out: 3 days. Detection: 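Imaged Hoechst DNA stain sorts each cell into a cycle phase by DNA amount; per plate, G2 fraction set to 0% for non-targeting and 100% for GMNN siRNA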. Scale: G2 robust z-score: higher = more G2 cells, more excess DNA replication. Call rule: 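Active siRNAs have a G2 robust z of 5 or more median absolute deviations over the median, which in these data means about 38% or higher of GMNN control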.
The whole screen tested about 59,000 reagents; below is a part drawn at random. About 1,550 of them (2.6%) were called active. 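G2 share is only a proxy for re-replication; each gene was hit by three separate siRNAs, and active genes were retested.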 Reagents against one gene are numbered here. Further read-outs or replicates are left out here. Not stated in the record: the amount of reagent.

SYF2 (SYF2 pre-mRNA splicing factor) #1 → G2 robust z-score = -0.118; Call = inactive
SYF2 (SYF2 pre-mRNA splicing factor) #2 → G2 robust z-score = -0.135; Call = inactive
SYF2 (SYF2 pre-mRNA splicing factor) #3 → G2 robust z-score = 0.15; Call = inactive
TNK2 (tyrosine kinase non receptor 2) #1 → G2 robust z-score = 8.18; Call = active
TNK2 (tyrosine kinase non receptor 2) #2 → G2 robust z-score = -0.741; Call = inactive
TNK2 (tyrosine kinase non receptor 2) #3 → G2 robust z-score = 1.76; Call = inactive
DCDC1 (doublecortin domain containing 1) #1 → G2 robust z-score = 0.705; Call = inactive
DCDC1 (doublecortin domain containing 1) #2 → G2 robust z-score = -0.93; Call = inactive
DCDC1 (doublecortin domain containing 1) #3 → G2 robust z-score = -0.264; Call = inactive
DCDC1 (doublecortin domain containing 1) #4 → G2 robust z-score = 0.069; Call = inactive
DCDC1 (doublecortin domain containing 1) #5 → G2 robust z-score = 0.254; Call = inactive
DCDC1 (doublecortin domain containing 1) #6 → G2 robust z-score = -0.611; Call = inactive
DVL3 (dishevelled segment polarity protein 3) #1 → G2 robust z-score = 0.165; Call = inactive
DVL3 (dishevelled segment polarity protein 3) #2 → G2 robust z-score = 1.86; Call = inactive
DVL3 (dishevelled segment polarity protein 3) #3 → G2 robust z-score = 0.121; Call = inactive
RRN3 (RNA polymerase I transcription factor RRN3) #1 → G2 robust z-score = 0.401; Call = inactive
RRN3 (RNA polymerase I transcription factor RRN3) #2 → G2 robust z-score = -0.758; Call = inactive
RRN3 (RNA polymerase I transcription factor RRN3) #3 → G2 robust z-score = 3.21; Call = inactive
TMEM121 (transmembrane protein 121) #1 → G2 robust z-score = -0.0126; Call = inactive
TMEM121 (transmembrane protein 121) #2 → G2 robust z-score = -0.863; Call = inactive
TMEM121 (transmembrane protein 121) #3 → G2 robust z-score = -0.283; Call = inactive
REEP1 (receptor accessory protein 1) #1 → G2 robust z-score = -0.249; Call = inactive
REEP1 (receptor accessory protein 1) #2 → G2 robust z-score = 0.532; Call = inactive
REEP1 (receptor accessory protein 1) #3 → G2 robust z-score = 1.65; Call = inactive
DEFB116 (defensin beta 116) #1 → G2 robust z-score = 2.02; Call = inactive
DEFB116 (defensin beta 116) #2 → G2 robust z-score = 0.219; Call = inactive
DEFB116 (defensin beta 116) #3 → G2 robust z-score = 0.202; Call = inactive
HEXB (hexosaminidase subunit beta) #1 → G2 robust z-score = -0.022; Call = inactive
HEXB (hexosaminidase subunit beta) #2 → G2 robust z-score = -0.364; Call = inactive
HEXB (hexosaminidase subunit beta) #3 → G2 robust z-score = 0.884; Call = inactive

Records above called active (1):
TNK2 (tyrosine kinase non receptor 2) #1 → G2 robust z-score = 8.18; Call = active
